Results are given in words; binding and its absence hold for the method and conditions named. In cells and extracts the contact can be indirect. Some binding calls cover weakened binding; strength is not graded here. Where a sequence is shown, tags or fusion partners need not be part of it.

Here are results for three molecules from patent publication US20110135647A1.

The target of experiment [1] is T1, p47 protein (approximately 47 kDa protein pulled down, identified by MALDI-TOF) (human) (UniProt Q9UNZ2).
T1 sequence: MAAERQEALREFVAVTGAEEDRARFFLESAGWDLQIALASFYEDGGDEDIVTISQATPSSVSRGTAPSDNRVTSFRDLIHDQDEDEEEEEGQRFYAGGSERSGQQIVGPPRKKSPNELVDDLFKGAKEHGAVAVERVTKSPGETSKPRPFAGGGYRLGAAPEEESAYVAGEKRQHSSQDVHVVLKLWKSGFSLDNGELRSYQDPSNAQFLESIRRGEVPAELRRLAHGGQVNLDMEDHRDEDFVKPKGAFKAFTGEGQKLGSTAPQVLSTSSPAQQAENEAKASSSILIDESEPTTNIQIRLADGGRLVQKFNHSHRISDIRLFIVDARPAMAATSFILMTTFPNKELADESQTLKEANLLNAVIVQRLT
Nature of the experiment: in vitro protein pull-down, silver staining, MALDI-TOF (data not shown).

Experiment [2] deals with GST-p47/myc-p97 complex (human) (UniProt Q5RBG3). Description: co-immunoprecipitation with myc-tag antibody from COS-7 cells transfected with the three constructs.
For experiment [3] the target is unchanged. Nature of the experiment: co-immunoprecipitation with anti-GST or anti-myc antibody from COS-7 cells transfected with the three constructs.
Experiment [4] has as its target T2, HA-tagged PBK/TOPK (HA-PBK/TOPK), wild type (human) (UniProt Q96KB5).
T2 sequence: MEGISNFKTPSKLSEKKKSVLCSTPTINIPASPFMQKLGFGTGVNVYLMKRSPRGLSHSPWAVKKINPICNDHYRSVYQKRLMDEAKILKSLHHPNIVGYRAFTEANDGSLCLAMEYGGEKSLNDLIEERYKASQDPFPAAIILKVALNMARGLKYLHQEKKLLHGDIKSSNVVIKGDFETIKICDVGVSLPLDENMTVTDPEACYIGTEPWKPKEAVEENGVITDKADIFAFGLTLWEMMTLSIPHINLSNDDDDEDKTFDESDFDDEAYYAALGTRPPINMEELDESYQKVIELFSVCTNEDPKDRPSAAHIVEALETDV
Nature of the experiment: in vitro pull-down: lysate of HA-PBK/TOPK-transfected COS-7 cells mixed with GST-p47, GST-beads, anti-HA blot.

B1: GST-tagged PBK/TOPK (GST-PBK/TOPK) recombinant protein (enzyme, not shown: a dimerising Fc or GST)
chain: T2 sequence
With B1, the binding result in experiment [1] is listed as “binds”.

B2: HA-tagged PBK/TOPK (HA-PBK/TOPK), wild type (enzyme, not shown: small tags and cut ends)
chain: T2 sequence
As to B2, the binding entry in experiment [2] and in experiment [3] was “binds” each time.

B3: GST-tagged p47 (GST-p47) recombinant protein (protein, not shown: a dimerising Fc or GST)
chain: T1 sequence
As to B3, the binding result in experiment [4] is recorded as “binds”.
